Results are given in words; binding and its absence hold for the method and conditions named. Some entries that bind do so weakly or less than the wild type.
Molecular target: pKal complexed with HMWK bound to HUVEC cells (human) (UniProt P03952+P01042)
Test: ELISA; HUVEC in 96-well plates, treated with 40 nM HMWK in 20 mM HEPES, 150 mM NaCl, 2 mM CaCl2, 1 mM MgCl2, pH 7.5 + 50 uM ZnSO4, 0.5 mg/ml BSA for 1 h at 25 °C, then 3 nM pKal 1 h; biotinylated DX-2930 added 2 h, detected by streptavidin-alkaline phosphatase; only the binder purified

Amino acid sequences for entries named in this document (tags omitted). A change or cut given only in a name is not applied to a line headed by its entry.
UniProt P03952: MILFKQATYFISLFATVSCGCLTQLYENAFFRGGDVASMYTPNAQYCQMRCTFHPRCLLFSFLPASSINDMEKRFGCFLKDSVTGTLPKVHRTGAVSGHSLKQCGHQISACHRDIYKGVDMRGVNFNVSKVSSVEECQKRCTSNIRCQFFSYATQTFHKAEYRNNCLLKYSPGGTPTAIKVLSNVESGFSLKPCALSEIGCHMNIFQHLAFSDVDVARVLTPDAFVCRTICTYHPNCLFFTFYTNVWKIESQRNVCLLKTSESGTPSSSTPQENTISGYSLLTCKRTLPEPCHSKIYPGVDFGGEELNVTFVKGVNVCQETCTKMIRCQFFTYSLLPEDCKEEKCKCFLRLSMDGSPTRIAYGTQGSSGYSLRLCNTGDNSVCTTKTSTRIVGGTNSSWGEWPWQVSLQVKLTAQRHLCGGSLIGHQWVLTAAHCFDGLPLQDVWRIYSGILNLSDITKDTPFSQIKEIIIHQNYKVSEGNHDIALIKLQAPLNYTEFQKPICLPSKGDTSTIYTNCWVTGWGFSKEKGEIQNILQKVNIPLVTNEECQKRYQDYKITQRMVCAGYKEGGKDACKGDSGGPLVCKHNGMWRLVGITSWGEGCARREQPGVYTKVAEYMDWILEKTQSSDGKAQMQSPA
UniProt P01042: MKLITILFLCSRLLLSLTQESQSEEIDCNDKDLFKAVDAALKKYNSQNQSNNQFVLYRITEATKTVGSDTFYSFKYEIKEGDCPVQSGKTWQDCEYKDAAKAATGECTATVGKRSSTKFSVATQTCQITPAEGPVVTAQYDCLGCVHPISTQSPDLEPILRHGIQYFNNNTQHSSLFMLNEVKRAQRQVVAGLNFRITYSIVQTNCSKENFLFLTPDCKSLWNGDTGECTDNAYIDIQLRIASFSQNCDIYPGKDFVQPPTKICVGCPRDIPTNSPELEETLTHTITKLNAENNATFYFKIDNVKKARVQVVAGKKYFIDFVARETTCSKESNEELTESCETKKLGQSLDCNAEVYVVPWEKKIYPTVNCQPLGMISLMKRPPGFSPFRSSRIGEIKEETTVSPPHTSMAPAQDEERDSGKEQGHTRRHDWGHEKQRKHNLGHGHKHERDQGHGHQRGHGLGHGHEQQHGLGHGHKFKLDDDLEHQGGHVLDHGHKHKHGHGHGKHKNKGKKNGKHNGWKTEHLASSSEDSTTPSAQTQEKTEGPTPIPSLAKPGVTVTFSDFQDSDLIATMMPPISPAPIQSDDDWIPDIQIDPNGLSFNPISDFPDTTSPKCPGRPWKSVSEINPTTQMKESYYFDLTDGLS

B1: C1 Inhibitor (protein, UniProt P05155 23-500)
chain: NPNATSSSSQDPESLQDRGEGKVATTVISKMLFVEPILEVSSLPTTNSTTNSATKITANTTDEPTTQPTTEPTTQPTIQPTQPTTQLPTDSPTQPTTGSFCPGPVTLCSDLESHSTEAVLGDALVDFSLKLYHAFSAMKKVETNMAFSPFSIASLLTQVLLGAGENTKTNLESILSYPKDFTCVHQALKGFTTKGVTSVSQIFHSPDLAIRDTFVNASRTLYSSSPRVLSNNSDANLELINTWVAKNTNNKISRLLDSLPSDTRLVLLNAIYLSAKWKTTFDPKKTRMEPFHFKNSVIKVPMMNSKKYPVAHFIDQTLKAKVGQLQLSHNLSLVILVPQNLKHRLEDMEQALSPSVFKAIMEKLEMSKFQPTLLTLPRIKVTTSQDMLSIMEKLEFFDFSYDLNLCGLTEDPDLQVSAMQHQTVLELTETGVEAAAASAISVARTLLVFEVQQPFLFVLWDQQHKFPVFMGRVYDPRA
- binding: binds weakly
